This test deals with BDF1 mice, P388 leukemia (terephthalanilide-resistant), survival T/C. Kind of test: NCI In Vivo Anticancer Drug Screen. Data for tumor model P388 Leukemia resistant to A Terephthalanilide; NSC 38280 (intraperitoneal) in B6D2F1 (BDF1) mice. To be noted: T/C endpoint: median survival time, schedule: Q01DX010 (ip), vehicle: saline, higher T/C = longer survival. The procedure: The antitumor activity of compounds was measured in mice bearing transplantable tumors. Survival or tumor size were measured and the results are expressed as the measurement made in the treated group (T) divided by the measurement made in the vehicle treated control group (C). The tumor model used in this assay is P388 Leukemia resistant to A Terephthalanilide; NSC 38280 (intraperitoneal) in B6D2F1 (BDF1) mice

The list is a part of this screen's results and no random one: its compounds were picked by chemical class. Other doses and runs of a compound may be missing. T/C: endpoint of the treated group in % of that of the vehicle group. Where survival is the endpoint, the PubChem record calls one and a half times the control and up active, and a quarter to a half above the control has no call in these data; cut-offs in other NCI protocols can differ. Some T/C values are marked as having no survivor count here; that says nothing about deaths at the dose. Schedules are NCI's codes, taken here to give the interval after Q, in days (D) or hours (H), and the number of doses after X. Marks such as (2×) stand for listed records that agree. Some entries were tested several times; their values stand side by side, smallest first.

As to `CN(CCCl)CCCl`, the T/C is 118 [survivor count not shown] and 137 % of control [survivor count not shown] (dose: 0.13 mg/kg/injection); 131 [survivor count not shown] and 137 % of control [survivor count not shown] (dose: 0.25 mg/kg/injection); 137 % of control [survivor count not shown] (2×) (dose: 0.5 mg/kg/injection); 87 % of control [survivor count not shown] (dose: 1.0 mg/kg/injection).

The values above are taken from PubChem BioAssay AID338 (DTP/NCI, 2004).
